Read-outs that look alike come from different tables or passages of the source.
Key:
[1] = Fluorescence quenching of n-AS probes in MLVs of EPC (drug location); assay type: physicochemical
Experimental: Three independent experiments were carried out.
This type of fluorescence quenching can be described by the Stern-Volmer linear plots (Equation 5 and Figures 7A,B) where the fluorescence emission intensities of the labeled nanocarrier in the absence (I0) and in the presence (I) of the quencher (drugs) are plotted against the quencher concentration [Q] and it is possible to obtain linear relations in which the intercept is zero and the slope corresponds to Stern-Volmer constant, KSVapp (Lakowicz, [2014]):
The Stern-Volmer plots of the fluorescence quenching provoked by increasing concentrations of Indomethacin are not linear and present positive deviations (Figure 7C). Positive deviations from the Stern-Volmer equation are often observed when the extent of quenching is large and these deviations from linearity indicate that the quenching mechanism cannot be explained solely by a collisional mechanism (Lakowicz, [2014]). There is an apparent static quenching component caused by the close proximity of deactivating drug and fluorophore at excitation moment. The quenching is still collisional, but the existence of fluorophores and quenchers located very close to each other causes an immediate fluorescence deactivation and therefore the fluorophore and the drug appear to form non-fluorescent complexes (Lakowicz, [2014]). This type of fluorescence quenching is usually interpreted in terms of a “sphere of action” (Equation 7) within which the possibility of deactivation is equal to unity (Lakowicz, [2014]).
(7) I0/I=(1+KSVapp[Q])e^[Q]Vapp
By representing graphically I0/(Ie^[Q]Vapp) as a function of [Q], linear relations were obtained in which the slope corresponds to KSVapp (Figure 7D). Thus, Indomethacin quenching efficiency followed approximately the same order as that obtained for Acemetacin: 2-AS < 6-AS < 9-AS < 12-AS.

[2] = for NSAID concentration required to obtain 25% of fluidizing effect (FE25): MLVs of EPC 500 μM, pH 7.4, concentration in lipid phase; for Rotational correlation time θ of n-AS probes with increasing drug concentrations (fluidizing effect): MLVs of EPC

Row | SMILES | Fluorescence apparent bimolecular constant, Kqapp ([1]; 2-AS probe in MLVs at 25.0°C) | Fluorescence apparent bimolecular constant, Kqapp ([1]; 6-AS probe in MLVs at 25.0°C) | Fluorescence apparent bimolecular constant, Kqapp ([1]; 9-AS probe in MLVs at 25.0°C) | Fluorescence apparent bimolecular constant, Kqapp ([1]; 12-AS probe in MLVs at 25.0°C) | NSAID concentration required to obtain 25% of fluidizing effect (FE25) ([2]; 2-AS probe) [M] | NSAID concentration required to obtain 25% of fluidizing effect (FE25) ([2]; 6-AS probe) [M] | NSAID concentration required to obtain 25% of fluidizing effect (FE25) ([2]; 9-AS probe) [M] | NSAID concentration required to obtain 25% of fluidizing effect (FE25) ([2]; 12-AS probe) [M] | Rotational correlation time θ of n-AS probes with increasing drug concentrations (fluidizing effect) [2]
1 | COc1ccc2c(c1)c(CC(=O)OCC(=O)O)c(C)n2C(=O)c1ccc(Cl)cc1 [Acemetacin] | 5.194 ± 0.006 (x10^−11) M^−1s^−1 | 4.424 ± 0.002 (x10^−11) M^−1s^−1 | 4.804 ± 0.005 (x10^−11) M^−1s^−1 | 5.675 ± 0.005 (x10^−11) M^−1s^−1 | 0.1492 ± 0.0005921 | 0.1346 ± 0.0005386 | 0.0879 ± 0.0003514 | 0.0459 ± 0.0001838 | θ values decreased
2 | COc1ccc2c(c1)c(CC(=O)O)c(C)n2C(=O)c1ccc(Cl)cc1 [Indomethacin] | 4.013 ± 0.006 (x10^−11) M^−1s^−1 | 4.029 ± 0.001 (x10^−11) M^−1s^−1 | 4.086 ± 0.005 (x10^−11) M^−1s^−1 | 4.181 ± 0.002 (x10^−11) M^−1s^−1 | 0.1684 ± 0.0005567 | 0.1255 ± 0.0005021 | 0.0953 ± 0.0003812 | 0.0532 ± 0.0002129 | θ values decreased
3 | Cc1ccc(C(=O)c2ccc(CC(=O)O)n2C)cc1 [Tolmetin] | 0.768 ± 0.001 (x10^−11) M^−1s^−1 | 0.638 ± 0.001 (x10^−11) M^−1s^−1 | 0.545 ± 0.001 (x10^−11) M^−1s^−1 | 0.612 ± 0.001 (x10^−11) M^−1s^−1 | 0.4112 ± 0.0001122 | 0.3955 ± 0.0001582 | 0.3633 ± 0.0001453 | 0.2272 ± 0.00009089 | θ values decreased

Source: publication PMC6080416, “Spectroscopic Studies as a Toolbox for Biophysical and Chemical Characterization of Lipid-Based Nanotherapeutics” (Frontiers in Chemistry, 2018)
